The experiment in a line: qHTS Assay to Find Inhibitors of Chronic Active B-Cell Receptor Signaling. The note with it: ABC-DLBCL IkBa-CBG/CBR reporter, luminescence ratio (green luciferase fused to IkBa over red control in TMD8 lymphoma cells), 4 h. The essentials: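 TMD8 ABC-DLBCL cells carrying doxycycline-inducible green luciferase fused to IkappaBalpha plus unfused red luciferase were exposed to compounds (up to 46 uM) for 4 hrs at 37C. Activity came from the overlap-corrected green/red luminescence ratio.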
A general note: qHTS replaces the single test concentration by a dilution series.

The mark [1] stands for this setting: measured here: CBR red luminescence, cell number.
[2] abbreviates: measured here: IkBa-CBG green luminescence.

In PubChem BioAssay AID493014 (National Center for Advancing Translational Sciences (NCATS), 2011) one finds AC50 data, which are given here for 60 compounds.

The other results are listed elsewhere or left out. The main result of the screen is listed elsewhere. These columns were measured beside it and carry no call. Compounds called inactive in the main read-out are mostly missing here. The note in brackets gives the kind of curve behind each potency; many fits are weak.

Usually AC50 stands for the midpoint of the concentration-response curve, whichever way the signal moves. On to `CN1C2CCC1/C(=C/c1ccccn1)C(=O)/C2=C\c1ccccn1`, for which the AC50 under setting [1] was 2.59 µM [falling, full curve].

On to `O=C1C=C2C=C[C@H]3C[C@]2(O1)[C@@H]1CCCCN13`, for which the AC50 under setting [1] is 20.6 µM [falling, single point].

In the case of `CCCCOCCCn1c(N)c(C(=O)OCCOC)c2nc3ccccc3nc21`, under setting [2], the AC50 was 35.5 µM [falling, partial curve, poor fit].

For the compound `CN(C)P(=O)(C(Cl)=C(N1CCCCC1)N1CCCCC1)N(C)C`, the AC50 under setting [1] is 3.16 µM [rising, partial curve, poor fit].

Turning to `COc1cccc(C(=O)C2CCCN(Cc3cccc4c3OCO4)C2)c1` (stereo not given), the AC50 under setting [1] was 35.5 µM [falling, single point].

For `O=C(Cc1csc(Nc2nc(=S)[nH]c3ccccc23)n1)NCCCN1CCN(c2ccccc2F)CC1`, the AC50 under setting [1] is 11.2 µM [falling, partial curve, poor fit].

Turning to `O=C1NC(=O)N(c2ccccc2)C(=O)/C1=C\C=C\c1ccccc1`, under setting [1], the AC50 was 35.5 µM [falling, single point].

As to `Cn1c(=O)oc2cc(S(=O)(=O)NCc3ccccc3)ccc21`, the AC50 under setting [1] was 0.116 µM [falling, full curve, poor fit].

As for `CCN(CC)CCOC(=O)c1ccc(N=Cc2c(O)[nH]c(=O)[nH]c2=O)cc1`, the AC50 under setting [1] was 3.55 µM [rising, partial curve].

Consider `CC(C)N(CC(=O)Nc1ccc(Cl)cc1C(F)(F)F)C(=O)CCl`, for which, under setting [1], the AC50 is 10 µM [falling, partial curve].

Regarding `COC(=O)C(O)(c1ccc(NC(=S)NC(=O)c2ccc(Cl)cc2Cl)c(C)c1)C(F)(F)F` (stereo not given), under setting [1], the AC50 was 18.4 µM [falling, single point].

Regarding `COc1ccccc1N(CC(=O)NC1CCCC1)C(=O)c1cnn(C(C)C)c1`, under setting [1], the AC50 is 23.1 µM [falling, single point].

In the case of `Cc1cc(C)n(-c2ccc(NN=C(C#N)C#N)cc2)n1`, under setting [1], the AC50 was 15.8 µM [falling, partial curve, poor fit].

Regarding `c1ccc2sc(N3CCNCC3)nc2c1`, under setting [1], the AC50 is 12.6 µM [rising, partial curve, poor fit].

As for `C[C@]12CCC3C(CC[C@H]4C[C@H](O)CC[C@]34C)C1CC(=O)[C@@H]2O` (stereo not given in full), under setting [1], the AC50 was 2.06 µM [rising, partial curve, poor fit].

With `O=C(Nc1cccc(Cl)c1)OC1CN2CCC1CC2` (stereo not given), the AC50 under setting [1] is 0.398 µM [rising, full curve, poor fit].

For `CC(=NCC1CCCO1)c1c(O)n(-c2ccc(Cl)cc2)c(=O)[nH]c1=O` (stereo not given), the AC50 under setting [1] is 0.291 µM [rising, full curve, poor fit].

In the case of `COc1ccc(N2C(=O)/C(=C/c3cccs3)C(=O)NC2=S)cc1`, under setting [1], the half-maximal activity concentration (AC50) is 6.31 µM [rising, partial curve, poor fit].

For the compound `Cc1nc2ccccc2n1C1CCN(Cc2nnnn2CCc2ccccc2)CC1`, the AC50 under setting [1] was 0.794 µM [rising, full curve, poor fit].

For the compound `CC(=O)OC(C)(C)/C=C/C(=O)[C@](C)(O)[C@H]1[C@H](O)C[C@@]2(C)[C@@H]3CC=C4[C@H](C[C@H](O)C(=O)C4(C)C)[C@]3(C)C(=O)C[C@]12C`, the concentration at half-maximal activity (AC50) under setting [1] is 6.51 µM [falling, partial curve].

As for `O=C1NC(=O)N(c2ccccc2)C(=O)/C1=C\c1ccccc1[N+](=O)[O-]`, under setting [1], the AC50 is 35.5 µM [falling, single point].

In the case of `Nc1nc(-c2ccccc2)cc(N2CCCCC2)n1`, under setting [1], the AC50 is 22.4 µM [rising, single point].

For `O=C1NC(=O)C2=Cc3ccc(O)cc3OC2(O)N1` (stereo not given), the AC50 under setting [1] was 35.5 µM [falling, single point].

As to `C=C1C(=O)O[C@@H]2C[C@@H](C)[C@@H]3C4OC4C(=O)[C@@]3(C)[C@@H](O)[C@H]12` (stereo not given in full), the AC50 is, setting by setting: under setting [1], 15.8 µM [falling, single point]; under setting [2], 31.6 µM [rising, single point].

With `CCc1ccccc1N1C(=O)/C(=C/c2ccc(N3CCN(C)CC3)o2)C(=O)NC1=S`, the AC50 is 23.1 µM [rising, partial curve] under setting [1] and 23.1 µM [falling, partial curve, poor fit] under setting [2].

As to `CC(C)CCOC(=O)c1c(N)n(CC2CCCO2)c2nc3ccccc3nc12` (stereo not given), the AC50 under setting [1] was 7.31 µM [falling, partial curve].

Turning to `COc1ccccc1NC(=O)C/C(C)=N/NC(=O)c1ccccn1`, the AC50 under setting [1] is 12.6 µM [falling, partial curve, poor fit].

Consider `CCOC(=O)Cn1cc([N+](=O)[O-])nc1[N+](=O)[O-]`, for which the AC50 under setting [1] was 35.5 µM [falling, single point].

Turning to `Cc1cc(NC(=O)CCl)no1`, under setting [1], the AC50 was 0.891 µM [falling, full curve, poor fit].

For `Nc1ccc(C2(c3ccc(N)cc3)c3ccccc3-c3ccccc32)cc1`, the AC50 under setting [1] is 29.1 µM [falling, single point].

Turning to `O=C(O)c1ccc(/C=C/c2nc3ccccc3c(=O)n2-c2ccc(Br)cc2)cc1`, the AC50 under setting [1] is 11.2 µM [falling, partial curve, poor fit].

With `O=C(O)Cc1sc(Nc2ccc(Cl)cc2)nc1-c1cccs1`, the half-maximal activity concentration (AC50) under setting [1] was 10 µM [falling, partial curve, poor fit].

`CCCOC(=O)c1c(N)n(Cc2cccs2)c2nc3ccccc3nc12`: the AC50 under setting [1] is 0.58 µM [falling, full curve, poor fit].

Consider `CCc1c(C)nc(N)nc1N1N=C1SCC(N)=O`, for which the AC50 under setting [1] was 1.3 µM [falling, full curve, poor fit].

As to `COc1cccc(/C=N\NC(=O)c2ccc(C)nc2)c1`, the concentration at half-maximal activity (AC50) under setting [1] is 14.1 µM [falling, single point].

For `CCNC(=O)COC(=O)/C=C/c1c(C)nn(Cc2cccc(OC)c2)c1Cl`, the AC50 under setting [1] was 35.5 µM [falling, single point].

As for `O=C(O)Cn1cc(C=C2C(=O)NC(=O)NC2=O)c2ccccc21`, the AC50 under setting [1] was 6.31 µM [rising, single point].

Take `CC(Cc1ccccc1)[n+]1cc(/N=C(\[O-])Nc2ccccc2)on1` (stereo not given): under setting [1], the AC50 was 0.731 µM [rising, full curve, poor fit].

With `C[C@]12CC[C@H](O)CC1=C([N+](=O)[O-])CC1C2CC[C@@]2(C)C1CC[C@@H]2O` (stereo not given in full), under setting [1], the half-maximal activity concentration (AC50) is 2.91 µM [rising, full curve].

Regarding `CCCOc1ccccc1NP(=O)(Oc1ccccc1)Oc1ccccc1`, the AC50 under setting [1] was 3.55 µM [rising, partial curve, poor fit].

Consider `CCOC(=O)C1=C(N)Oc2c(c(=O)oc3ccccc23)C12C(=O)N(C)c1ccccc12` (stereo not given), for which, under setting [1], the AC50 is 2.82 µM [falling, full curve, poor fit].

As for `CN(c1cccc(NC(=O)c2ccc(N(C)S(=O)(=O)c3ccccc3)cc2)c1)S(C)(=O)=O`, under setting [1], the AC50 was 14.1 µM [falling, partial curve, poor fit].

As to `Cc1cc(OC(=O)c2ccco2)c2c3c(c(=O)oc2c1)CCCC3`, under setting [1], the AC50 is 3.66 µM [rising, full curve].

Consider `CN1C(=O)C(=Cc2ccccc2OCc2ccccc2Cl)C(=O)N(C)C1=O`, for which the concentration at half-maximal activity (AC50) under setting [1] was 25.9 µM [rising, single point].

In the case of `COC(=O)C1=C(c2c(C)noc2C)C[C@@H]2CC[C@H]1N2C(=O)NCc1ccc(F)cc1`, the AC50 under setting [1] was 25.9 µM [falling, partial curve, poor fit].

With `NC(=O)c1ccc(N=Cc2c(O)n(Cc3ccco3)c(=O)[nH]c2=O)cc1`, under setting [1], the AC50 was 35.5 µM [rising, single point].

Regarding `O=C(NC1CCCCC1)Oc1cc2oc(=O)sc2cc1Cl`, the AC50 under setting [1] is 12.6 µM [rising, partial curve] and the AC50 under setting [2] was 35.5 µM [falling, partial curve, poor fit].

`COc1ccccc1N(CC(=O)NC1CCCCC1)C(=O)CNC(=O)c1cccs1`: the AC50 under setting [1] is 17.8 µM [falling, single point].

With `CCCCCn1cnc2sc(-c3ccccc3)cc2c1=O`, under setting [1], the AC50 is 2.82 µM [rising, partial curve].

In the case of `COC(=O)C1=C(c2ccc(OC)c(OC)c2)C[C@@H]2CC[C@H]1N2C(=O)NCc1cccc2ccccc12`, the AC50 by setting is: under setting [1], 23.1 µM [falling, partial curve, poor fit]; under setting [2], 23.1 µM [rising, partial curve, poor fit].

As for `O=[N+]([O-])c1cccc2c([As](=O)(O)O)cccc12`, the half-maximal activity concentration (AC50) under setting [1] is 10 µM [falling, partial curve, poor fit].

Consider `O=C(Cn1cc(C(=O)c2ccccc2F)c2ccccc21)NC1CC1`, for which the AC50 under setting [1] is 15.8 µM [rising, single point].

Take `Cc1c(C(=O)O)cc(-c2ccccc2)n1Cc1ccccc1`: the AC50 under setting [2] is 12.6 µM [rising, partial curve, poor fit].

As to `Cc1ccc2nc3c(cc2c1)CC1(C(=O)N(C)C(=O)N(C)C1=O)C1CCCCN31` (stereo not given), the concentration at half-maximal activity (AC50) under setting [1] is 6.51 µM [falling, single point].

Consider `COC(=O)C(O)(c1ccc2c(c1)CCCN2)C(F)(F)F` (stereo not given), for which the AC50 under setting [1] was 15.8 µM [rising, single point].

In the case of `c1ccc2c(c1)Sc1ccccc1N2CC1CN2CCC1CC2` (stereo not given), the AC50 under setting [1] was 17.8 µM [falling, single point].

On to `Cc1ccc(OP(=O)(Nc2cccc(C)c2)Oc2ccc(C)cc2)cc1`, for which the AC50 under setting [1] was 22.4 µM [falling, single point].

In the case of `C[C@]12CC[C@H]3[C@@H](CC[C@]4(O)C[C@@H](O)CC[C@]34C=O)[C@@]1(O)CC[C@@H]2C1=CC(=O)OC1`, the AC50 is, setting by setting: under setting [1], 3.66 µM [falling, partial curve]; under setting [2], 29.1 µM [rising, partial curve, poor fit].

With `Nc1c(C(=O)NCc2ccco2)c2nc3ccccc3nc2n1CCN1CCOCC1`, the AC50 under setting [1] is 18.4 µM [falling, partial curve, poor fit].

As for `CC1=C/C(=C(/c2cc(C)c(O)c(Br)c2)c2ccccc2S(=O)(=O)O)C=C(Br)C1=O`, the AC50 under setting [1] is 7.94 µM [falling, partial curve, poor fit].
